From the supplement of paper PMC11006884
Only a part is listed here, and it is no random draw.

Sequences of proteins named here, by UniProt entry; tags and fusion partners are left off. A change or cut given only in a name is not applied to a line headed by its entry.
UniProt P27707: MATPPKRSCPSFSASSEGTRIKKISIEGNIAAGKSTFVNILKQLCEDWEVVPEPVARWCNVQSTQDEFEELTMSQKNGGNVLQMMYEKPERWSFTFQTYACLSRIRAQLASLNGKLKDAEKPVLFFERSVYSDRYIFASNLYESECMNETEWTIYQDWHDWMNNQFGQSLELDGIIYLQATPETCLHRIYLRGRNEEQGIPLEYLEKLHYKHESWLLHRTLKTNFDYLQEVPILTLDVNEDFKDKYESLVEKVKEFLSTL
UniProt P28331, whole entry, looked up: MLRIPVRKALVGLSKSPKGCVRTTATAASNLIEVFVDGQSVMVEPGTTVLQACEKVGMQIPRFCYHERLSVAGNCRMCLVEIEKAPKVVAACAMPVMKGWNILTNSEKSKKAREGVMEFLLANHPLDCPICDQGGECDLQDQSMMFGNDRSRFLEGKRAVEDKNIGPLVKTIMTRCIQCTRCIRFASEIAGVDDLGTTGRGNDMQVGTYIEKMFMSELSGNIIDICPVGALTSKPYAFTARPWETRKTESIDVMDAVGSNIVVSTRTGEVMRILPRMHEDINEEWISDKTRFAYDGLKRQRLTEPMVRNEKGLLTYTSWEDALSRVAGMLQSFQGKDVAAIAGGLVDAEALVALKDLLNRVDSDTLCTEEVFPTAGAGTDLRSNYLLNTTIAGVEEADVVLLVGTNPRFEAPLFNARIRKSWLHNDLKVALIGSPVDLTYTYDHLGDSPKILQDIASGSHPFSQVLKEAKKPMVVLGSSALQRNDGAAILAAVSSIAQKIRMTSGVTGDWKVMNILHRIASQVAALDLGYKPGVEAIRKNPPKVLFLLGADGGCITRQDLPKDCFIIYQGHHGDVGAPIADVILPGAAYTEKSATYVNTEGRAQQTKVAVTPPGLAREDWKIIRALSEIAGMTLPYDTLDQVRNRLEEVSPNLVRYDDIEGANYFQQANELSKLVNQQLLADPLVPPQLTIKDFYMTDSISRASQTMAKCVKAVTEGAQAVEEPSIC
UniProt P21964: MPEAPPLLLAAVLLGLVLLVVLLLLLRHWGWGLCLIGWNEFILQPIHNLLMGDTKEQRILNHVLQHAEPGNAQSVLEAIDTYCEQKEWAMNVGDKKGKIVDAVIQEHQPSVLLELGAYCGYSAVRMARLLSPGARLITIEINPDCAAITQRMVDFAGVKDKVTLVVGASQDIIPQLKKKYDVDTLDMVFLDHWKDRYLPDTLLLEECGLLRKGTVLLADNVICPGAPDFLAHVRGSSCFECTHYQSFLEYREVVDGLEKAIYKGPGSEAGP
UniProt P20810: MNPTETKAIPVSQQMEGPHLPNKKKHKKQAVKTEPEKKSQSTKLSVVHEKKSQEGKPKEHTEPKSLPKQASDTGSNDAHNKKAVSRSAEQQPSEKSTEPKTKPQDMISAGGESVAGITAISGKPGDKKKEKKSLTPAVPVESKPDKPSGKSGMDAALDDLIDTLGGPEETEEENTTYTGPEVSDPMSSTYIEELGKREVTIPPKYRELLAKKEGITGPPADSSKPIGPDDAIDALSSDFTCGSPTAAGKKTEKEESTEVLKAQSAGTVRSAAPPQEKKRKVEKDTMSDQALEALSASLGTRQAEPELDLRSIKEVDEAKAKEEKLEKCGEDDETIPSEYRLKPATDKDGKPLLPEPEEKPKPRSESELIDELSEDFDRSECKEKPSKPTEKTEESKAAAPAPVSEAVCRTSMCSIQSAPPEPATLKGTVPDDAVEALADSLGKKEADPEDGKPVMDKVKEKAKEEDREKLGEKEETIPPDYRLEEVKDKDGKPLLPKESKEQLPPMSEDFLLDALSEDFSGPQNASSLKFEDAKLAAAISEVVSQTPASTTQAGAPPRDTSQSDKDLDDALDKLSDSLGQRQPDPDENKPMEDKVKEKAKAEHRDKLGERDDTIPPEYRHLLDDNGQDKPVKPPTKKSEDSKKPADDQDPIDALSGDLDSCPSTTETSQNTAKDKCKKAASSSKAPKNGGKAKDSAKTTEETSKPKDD
UniProt P29590: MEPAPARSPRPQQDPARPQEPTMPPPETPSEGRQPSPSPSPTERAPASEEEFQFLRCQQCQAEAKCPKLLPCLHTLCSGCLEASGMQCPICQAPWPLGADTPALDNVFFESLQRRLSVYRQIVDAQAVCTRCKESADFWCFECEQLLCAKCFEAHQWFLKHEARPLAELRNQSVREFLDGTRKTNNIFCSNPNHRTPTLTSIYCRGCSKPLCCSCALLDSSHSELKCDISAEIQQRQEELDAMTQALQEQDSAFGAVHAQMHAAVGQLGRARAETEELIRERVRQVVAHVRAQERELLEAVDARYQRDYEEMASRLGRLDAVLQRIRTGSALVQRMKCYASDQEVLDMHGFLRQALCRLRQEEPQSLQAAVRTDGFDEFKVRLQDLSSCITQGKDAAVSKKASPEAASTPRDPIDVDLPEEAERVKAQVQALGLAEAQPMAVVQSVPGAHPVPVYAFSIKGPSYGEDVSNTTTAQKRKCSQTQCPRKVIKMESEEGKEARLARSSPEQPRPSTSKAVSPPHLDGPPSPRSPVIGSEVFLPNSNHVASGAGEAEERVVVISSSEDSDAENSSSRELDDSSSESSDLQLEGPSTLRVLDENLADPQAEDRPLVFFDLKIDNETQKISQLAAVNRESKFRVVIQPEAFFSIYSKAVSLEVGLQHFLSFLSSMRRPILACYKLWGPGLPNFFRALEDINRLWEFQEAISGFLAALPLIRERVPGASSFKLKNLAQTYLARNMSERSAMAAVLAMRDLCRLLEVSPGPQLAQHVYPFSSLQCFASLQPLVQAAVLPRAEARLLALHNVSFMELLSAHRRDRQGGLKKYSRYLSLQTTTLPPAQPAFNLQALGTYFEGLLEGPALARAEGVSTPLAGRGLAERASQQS
UniProt P28340: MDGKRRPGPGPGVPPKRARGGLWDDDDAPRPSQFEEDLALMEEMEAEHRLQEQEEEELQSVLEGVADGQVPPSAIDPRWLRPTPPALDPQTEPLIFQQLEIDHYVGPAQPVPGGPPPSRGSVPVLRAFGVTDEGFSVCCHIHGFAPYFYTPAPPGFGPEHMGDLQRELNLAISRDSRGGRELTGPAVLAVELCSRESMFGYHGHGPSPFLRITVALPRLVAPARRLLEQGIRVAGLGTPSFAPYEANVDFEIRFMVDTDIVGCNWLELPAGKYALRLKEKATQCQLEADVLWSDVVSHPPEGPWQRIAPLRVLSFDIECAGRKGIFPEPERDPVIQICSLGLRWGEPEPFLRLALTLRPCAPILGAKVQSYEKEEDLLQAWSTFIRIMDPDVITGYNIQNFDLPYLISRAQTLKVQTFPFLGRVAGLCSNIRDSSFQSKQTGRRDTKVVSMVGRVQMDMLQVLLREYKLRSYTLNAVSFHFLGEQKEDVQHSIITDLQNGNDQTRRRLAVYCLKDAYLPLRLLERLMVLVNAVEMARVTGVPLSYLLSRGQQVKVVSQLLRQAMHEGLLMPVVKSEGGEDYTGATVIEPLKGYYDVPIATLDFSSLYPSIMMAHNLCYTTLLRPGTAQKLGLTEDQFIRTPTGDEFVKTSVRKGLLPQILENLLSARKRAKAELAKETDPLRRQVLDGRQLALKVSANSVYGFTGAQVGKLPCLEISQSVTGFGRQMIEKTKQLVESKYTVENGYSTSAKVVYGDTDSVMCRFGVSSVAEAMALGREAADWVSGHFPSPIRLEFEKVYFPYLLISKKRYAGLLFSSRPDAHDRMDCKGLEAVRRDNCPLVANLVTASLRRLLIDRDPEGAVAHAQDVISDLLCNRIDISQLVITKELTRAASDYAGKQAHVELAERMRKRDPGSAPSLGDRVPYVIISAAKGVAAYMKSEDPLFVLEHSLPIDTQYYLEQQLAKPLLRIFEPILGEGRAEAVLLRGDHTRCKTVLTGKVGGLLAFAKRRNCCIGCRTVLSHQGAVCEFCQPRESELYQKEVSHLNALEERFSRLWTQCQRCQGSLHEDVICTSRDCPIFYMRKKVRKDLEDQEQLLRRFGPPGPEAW
UniProt P25098: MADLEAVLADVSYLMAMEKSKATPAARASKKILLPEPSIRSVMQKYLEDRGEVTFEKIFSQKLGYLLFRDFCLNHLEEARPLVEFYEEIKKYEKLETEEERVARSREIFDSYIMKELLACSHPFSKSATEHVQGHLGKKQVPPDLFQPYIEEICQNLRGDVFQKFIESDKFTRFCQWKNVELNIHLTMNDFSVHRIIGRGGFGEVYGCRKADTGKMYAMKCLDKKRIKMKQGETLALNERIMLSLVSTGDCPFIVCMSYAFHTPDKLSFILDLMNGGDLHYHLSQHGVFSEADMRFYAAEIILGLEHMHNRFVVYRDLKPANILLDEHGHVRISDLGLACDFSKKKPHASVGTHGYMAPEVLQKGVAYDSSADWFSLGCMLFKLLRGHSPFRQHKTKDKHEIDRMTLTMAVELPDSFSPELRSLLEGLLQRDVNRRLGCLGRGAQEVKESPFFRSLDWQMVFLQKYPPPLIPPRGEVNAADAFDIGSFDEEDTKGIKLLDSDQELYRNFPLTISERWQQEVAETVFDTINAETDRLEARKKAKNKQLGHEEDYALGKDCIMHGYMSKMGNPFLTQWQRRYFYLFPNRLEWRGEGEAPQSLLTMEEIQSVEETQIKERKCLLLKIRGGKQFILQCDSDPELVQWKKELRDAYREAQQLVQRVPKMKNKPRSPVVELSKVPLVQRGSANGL
UniProt P21912: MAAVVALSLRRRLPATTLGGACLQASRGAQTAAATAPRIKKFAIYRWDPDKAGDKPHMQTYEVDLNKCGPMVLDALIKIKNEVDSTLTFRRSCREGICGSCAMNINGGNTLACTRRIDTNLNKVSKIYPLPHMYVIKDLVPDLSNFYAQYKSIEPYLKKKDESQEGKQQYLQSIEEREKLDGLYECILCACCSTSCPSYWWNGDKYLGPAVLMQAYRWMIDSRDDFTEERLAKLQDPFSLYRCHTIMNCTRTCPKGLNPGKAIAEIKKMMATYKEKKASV
UniProt P21796, whole entry, looked up: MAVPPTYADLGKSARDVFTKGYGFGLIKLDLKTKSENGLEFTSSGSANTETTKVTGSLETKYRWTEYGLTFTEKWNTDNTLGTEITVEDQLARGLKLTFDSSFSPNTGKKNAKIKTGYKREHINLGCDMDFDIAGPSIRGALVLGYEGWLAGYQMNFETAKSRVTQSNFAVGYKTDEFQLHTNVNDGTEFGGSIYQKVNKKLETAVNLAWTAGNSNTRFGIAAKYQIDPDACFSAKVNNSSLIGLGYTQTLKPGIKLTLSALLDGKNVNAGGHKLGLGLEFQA
UniProt P26640: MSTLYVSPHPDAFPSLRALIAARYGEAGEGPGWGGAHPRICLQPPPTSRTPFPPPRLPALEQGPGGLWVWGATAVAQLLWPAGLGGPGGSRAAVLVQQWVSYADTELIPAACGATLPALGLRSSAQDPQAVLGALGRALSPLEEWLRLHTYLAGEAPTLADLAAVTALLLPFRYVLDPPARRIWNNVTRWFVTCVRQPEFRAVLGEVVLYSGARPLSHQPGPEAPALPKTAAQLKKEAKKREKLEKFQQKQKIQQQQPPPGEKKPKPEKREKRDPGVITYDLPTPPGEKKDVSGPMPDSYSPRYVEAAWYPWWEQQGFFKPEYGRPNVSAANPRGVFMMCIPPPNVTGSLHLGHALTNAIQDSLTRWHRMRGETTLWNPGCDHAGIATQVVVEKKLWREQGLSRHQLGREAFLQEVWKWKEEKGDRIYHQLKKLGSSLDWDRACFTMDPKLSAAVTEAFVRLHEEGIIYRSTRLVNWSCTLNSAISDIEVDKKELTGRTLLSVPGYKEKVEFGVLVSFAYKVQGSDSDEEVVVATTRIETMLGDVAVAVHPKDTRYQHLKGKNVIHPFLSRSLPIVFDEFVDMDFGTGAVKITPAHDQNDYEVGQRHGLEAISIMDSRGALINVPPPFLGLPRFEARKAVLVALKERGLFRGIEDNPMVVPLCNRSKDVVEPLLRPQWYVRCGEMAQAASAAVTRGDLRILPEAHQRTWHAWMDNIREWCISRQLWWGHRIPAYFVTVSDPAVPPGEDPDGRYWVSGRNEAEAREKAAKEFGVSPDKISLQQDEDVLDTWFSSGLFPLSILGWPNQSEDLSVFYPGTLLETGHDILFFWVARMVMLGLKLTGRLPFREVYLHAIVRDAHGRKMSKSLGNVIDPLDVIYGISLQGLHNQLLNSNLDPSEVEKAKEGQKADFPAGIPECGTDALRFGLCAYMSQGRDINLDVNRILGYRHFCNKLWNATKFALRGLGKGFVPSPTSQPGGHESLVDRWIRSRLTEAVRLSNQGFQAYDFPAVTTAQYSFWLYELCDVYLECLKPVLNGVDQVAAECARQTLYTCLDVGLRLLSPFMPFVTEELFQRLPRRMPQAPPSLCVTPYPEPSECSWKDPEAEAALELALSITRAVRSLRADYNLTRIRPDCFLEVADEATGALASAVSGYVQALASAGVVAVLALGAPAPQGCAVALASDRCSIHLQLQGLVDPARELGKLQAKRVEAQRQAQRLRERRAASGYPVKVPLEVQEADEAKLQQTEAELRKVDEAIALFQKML

What follows are targets tested with COC(=O)C#Cc1ccccc1 [methyl 3-phenylpropiolate] (assay: log2 ratio of iodoacetamide-alkyne labeling of the cysteine site, DMSO over compound (competition); higher = stronger covalent engagement of the cysteine by the compound, active = 1 or more). Conditions: 500 µM; treatment time 1 h; system: HEK293T cell lysate.
Method in brief: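 For each cysteine, the log2 competition ratio is mean control-channel reporter intensity over mean compound-channel reporter intensity. HEK293T lysate (2 mg/mL) was exposed to vehicle or electrophile (500 µM, 1 h, ambient temperature), labelled with iodoacetamide alkyne (1 h), clicked to sCIP-TMT reagents, digested overnight with trypsin at 37 °C, streptavidin-enriched and analysed by Orbitrap Eclipse LC-MS/MS with FAIMS and FragPipe. Cysteines quantified in only one of three replicates, each with duplicate channels, were excluded.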

| Target | log2 ratio of iodoacetamide-alkyne labeling |
| --- | --- |
| DCK C59 (UniProt P27707) | inactive: 0.21 |
| EIF2S2 C302 (UniProt P20042) | inactive: -0.0112 |
| NDUFS1 C128 (UniProt P28331) | inactive: -0.111 |
| LAP3 C376 (UniProt P28838) | inactive: -0.0517 |
| COMT C145 (UniProt P21964) | inactive: 0.0366 |
| RCC1 C198 (UniProt P18754) | inactive: 0.217 |
| DDX5 C234 (UniProt P17844) | inactive: 0.00685 |
| MSN C284 (UniProt P26038) | inactive: -0.16 |
| UBA1 C413 (UniProt P22314) | inactive: 0.0618 |
| CAST C241 (UniProt P20810) | inactive: 0.334 |
| PML C227 (UniProt P29590) | inactive: 0.361 |
| ARF4 C159 (UniProt P18085) | inactive: 0.0639 |
| RPL17 C144 (UniProt P18621) | inactive: 0.131 |
| POLD1 C428 (UniProt P28340) | inactive: 0.281 |
| UniProt P25098_C340 | inactive: 0.034 |
| GART C41 (UniProt P22102) | inactive: 0.0457 |
| TCP1 C357 (UniProt P17987) | inactive: 0.957 |
| MPG C61 (UniProt P29372) | inactive: 0.662 |
| FLNA C623 (UniProt P21333) | inactive: -0.0395 |

Shown as tab-separated lines: entries from further up.
Target	log2 ratio of iodoacetamide-alkyne labeling
MSN C284 (UniProt P26038)	inactive: -0.16
CAST C241 (UniProt P20810)	inactive: 0.334

(cont.)

| Target | log2 ratio of iodoacetamide-alkyne labeling |
| --- | --- |
| ATP6V1C1 C15 (UniProt P21283) | inactive: 0.0079 |
| SDHB C68 (UniProt P21912) | inactive: -0.0527 |
| VDAC1 C232 (UniProt P21796) | inactive: -0.026 |
| PLCG1 C247 (UniProt P19174) | inactive: 0.104 |
| RPL12 C17 (UniProt P30050) | inactive: 0.0444 |
| VARS C720 (UniProt P26640) | inactive: 0.0991 |
| CAST C408 (UniProt P20810) | active: 1.01 |
| MAP4 C1008 (UniProt P27816) | inactive: 0.623 |
| UniProt P28482_C254 | inactive: -0.0158 |
| APC C914 (UniProt P25054) | inactive: 0.433 |
| TEAD1 C53 (UniProt P28347) | inactive: 0.216 |
| APEX1 C310 (UniProt P27695) | inactive: -0.035 |
| PTBP1 C23 (UniProt P26599) | inactive: 0.39 |
| LAP3 C335 (UniProt P28838) | inactive: -0.0616 |
| DNAJB1 C179 (UniProt P25685) | inactive: 0.262 |
| GLDC C795 (UniProt P23378) | inactive: 0.153 |
| UniProt P28290_C448 | inactive: 0.3 |
| UniProt P25705_C294 | inactive: 0.133 |
| NFKB1 C925 (UniProt P19838) | inactive: 0.193 |
